Test results published in patent US20190185578A1.
Where a chain is given by its changes, count along the chain named. These are yes or no findings as the source states them, for the method shown. Binding can be weak; no strength is given.

Sequences of proteins named here, by UniProt entry; tags and fusion partners are left off. A change or cut given only in a name is not applied to a line headed by its entry.
UniProt P00740: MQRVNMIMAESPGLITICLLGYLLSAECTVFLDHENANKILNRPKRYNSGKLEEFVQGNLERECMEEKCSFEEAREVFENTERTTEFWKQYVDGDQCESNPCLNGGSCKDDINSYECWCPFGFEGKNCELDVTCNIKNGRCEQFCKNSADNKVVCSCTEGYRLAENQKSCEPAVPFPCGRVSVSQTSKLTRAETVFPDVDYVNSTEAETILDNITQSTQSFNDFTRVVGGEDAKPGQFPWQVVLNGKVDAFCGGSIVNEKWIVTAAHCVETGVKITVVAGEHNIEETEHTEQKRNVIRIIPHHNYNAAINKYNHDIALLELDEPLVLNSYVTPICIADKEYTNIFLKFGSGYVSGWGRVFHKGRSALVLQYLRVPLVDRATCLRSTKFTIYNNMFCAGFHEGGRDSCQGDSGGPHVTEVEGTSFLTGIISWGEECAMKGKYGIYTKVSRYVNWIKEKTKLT

B1: QNK131 (heavy chain SEQ ID NO: 45 and light chain SEQ ID NO: 13) (antibody, V domains shown)
VH: QVQLVESGGGLVQPGGSLRLSCAASGFTFSYYDIQWVRQAPGKGLEWVSSISPSGQSTYYRREVKGRFTISRDNSKNTLYLQMNSLRAEDTAVYYCARRTGREYGGGWYFDYWGQGTLVTVSS
VL: EIVLTQSPATLSVSPGERATLSCRASQSVSSNLAWYQQKPGQAPRLLIYGASTRATGIPARFSGSGSGTEFTLTISSLQSEDFAVYYCQQYKRPLTFGGGTKVEIK
B2: QNL182 (heavy chain SEQ ID NO: 45 and light chain SEQ ID NO: 16) (antibody, V domains shown)
V domain 1: B1 VH
V domain 2: SSGLTQPPSLSVSPGQTASITCSGHKVGDKYASWYQQKPGQSPVLVIYQDSKRPSGIPERFSASNSGNTATLTISGTQAVDEADYYCLAWVPNSGYVFGTGTQVTVV
B3: QNK315 (heavy chain SEQ ID NO: 45 and light chain SEQ ID NO: 15) (antibody, V domains shown)
VH: B1 VH
VL: DIVMTQTPLSLSVTPGQPASVSCKSSQSLLRTDGKAYLDWYLQKPGQSPQLLIYEVSKRFSGVPDRFSGSGSGTDFTLKISRVEAEDVGVYYCMQRIQALSFGGGTKVDIK
B4: QNL492 (heavy chain SEQ ID NO: 45 and light chain SEQ ID NO: 17) (antibody, V domains shown)
VH: B1 VH
VL: QSVLTQPASVSGSPGQSITISCTGTSSDVGSYNLVSWYQQHPGKAPKLMIYEVSKRPSGVSNRFSGSKSGNTASLTISGLQAEDEADYYCCSYAGSSTLVFGGGTKLTVL
B5: QNL576 (heavy chain SEQ ID NO: 45 and light chain SEQ ID NO: 18) (antibody, V domains shown)
V domain 1: B1 VH
V domain 2: B2 V domain 2 with S1Q, G3A
B6: QNK284 (heavy chain SEQ ID NO: 45 and light chain SEQ ID NO: 14) (antibody, V domains shown)
VH: B1 VH
VL: DIQLTQSPSSLSASVGDRVTITCRASQGISSYLAWYQQKPGKAPKLLIYAASTLQSGVPSRFSGSGSGTDFTLTISSLQPEDFATYYCQQLNSYLGITFGPGTKVDIK

Each binder was assayed against biotinylated human FIXa (human) (UniProt P00740) (assay: panning of an L chain library (fixed ACE910 H chain) on biotinylated human FIXa; no read-out printed).

binding, binds:
B1, B2, B3, B4, B5, B6
